# Experimental data: PubChem BioAssay AID200 (DTP/NCI, 2004)
# The list is a part of this screen's results and no random one: it covers a few groups of compounds. Other doses and runs of a compound may be missing. T/C: endpoint of the treated group in % of that of the vehicle group. Some doses have a count of surviving animals in place of a T/C: the source files T/C as zero there, which appears to mark a toxic dose or a test without result, not a measured value. Some survivor counts are full or nearly so, which does not show that the dose was tolerated: survival well below the control is almost never listed, so the zero probably covers shortened survival too. Survivors were counted at the toxicity check, usually on the fifth day, unless a day is given; later deaths do not show. Schedules are NCI's codes, taken here to give the interval after Q, in days (D) or hours (H), and the number of doses after X. Some doses were run more than once; their values stand side by side, smallest first. Where survival is the endpoint, this PubChem deposit counts one and a half times the control or more as active, and values a quarter to a half above the control carry no call in these data; other NCI protocols may use other cut-offs. Some entries show no survivor count and are marked so; the dose need not have been tolerated. Some T/C values are followed by the survivors on the day toxicity was checked, most often the fifth; where neither a count nor a note follows, no animal had died by that day.
# Test system: B6C3F1 mice, B16 melanoma ip, median survival T/C
# Test: NCI In Vivo Anticancer Drug Screen. Data for tumor model B16 Melanoma (intraperitoneal) in B6C3F1 mice
# Settings: T/C endpoint: median survival time, higher T/C = longer survival
# Description: The antitumor activity of compounds was measured in mice bearing transplantable tumors. Survival or tumor size were measured and the results are expressed as the measurement made in the treated group (T) divided by the measurement made in the vehicle treated control group (C). The tumor model used in this assay is B16 Melanoma (intraperitoneal) in B6C3F1 mice
# [1] = dose: 3.12 mg/kg/injection, schedule: Q01DX009 (ip), vehicle: saline with Tween-80
# [2] = dose: 6.25 mg/kg/injection, schedule: Q01DX009 (ip), vehicle: saline with Tween-80
# [3] = dose: 12.5 mg/kg/injection, schedule: Q01DX009 (ip), vehicle: saline with Tween-80
# [4] = dose: 25.0 mg/kg/injection, schedule: Q01DX009 (ip), vehicle: saline with Tween-80
# [5] = dose: 50.0 mg/kg/injection, schedule: Q01DX009 (ip), vehicle: saline with Tween-80
# [6] = dose: 400.0 mg/kg/injection, schedule: Q01DX001 (ip), vehicle: water
# [7] = dose: 12.5 mg/kg/injection, schedule: Q01DX009 (ip), vehicle: Klucel (hydroxypropylcellulose) (HPC)
# [8] = dose: 25.0 mg/kg/injection, schedule: Q01DX009 (ip), vehicle: Klucel (hydroxypropylcellulose) (HPC)
# [9] = dose: 50.0 mg/kg/injection, schedule: Q01DX009 (ip), vehicle: Klucel (hydroxypropylcellulose) (HPC)
# [10] = dose: 100.0 mg/kg/injection, schedule: Q01DX009 (ip), vehicle: Klucel (hydroxypropylcellulose) (HPC)
# [11] = dose: 6.25 mg/kg/injection, schedule: Q01DX009 (ip), vehicle: Klucel (hydroxypropylcellulose) (HPC)
smiles,measurement,setting,value
NCCN(CCCl)CCCl,T/C,"dose: 0.13 mg/kg/injection, schedule: Q01DX009 (ip), vehicle: saline",123 % of control
same,T/C,"dose: 0.22 mg/kg/injection, schedule: Q01DX009 (ip), vehicle: saline",139 % of control
same,T/C,"dose: 0.25 mg/kg/injection, schedule: Q01DX009 (ip), vehicle: saline with Tween-80",179 % of control
same,T/C,"dose: 0.36 mg/kg/injection, schedule: Q01DX009 (ip), vehicle: saline",190 % of control
same,T/C,"dose: 0.5 mg/kg/injection, schedule: Q01DX009 (ip), vehicle: saline with Tween-80",235 % of control
same,T/C,"dose: 0.6 mg/kg/injection, schedule: Q01DX009 (ip), vehicle: saline",198 % of control
same,T/C,"dose: 1.0 mg/kg/injection, schedule: Q01DX009 (ip), vehicle: saline with Tween-80",256 % of control
same,T/C,"dose: 1.0 mg/kg/injection, schedule: Q01DX009 (ip), vehicle: saline",289 % of control
same,T/C,"dose: 1.67 mg/kg/injection, schedule: Q01DX009 (ip), vehicle: saline",271 % of control
O=NN(CCSCCCl)C(=O)NC1CCCCC1,T/C,[1],118 and 141 % of control
same,T/C,[2],142 and 163 % of control
same,T/C,[3],185 and 214 % of control
same,T/C,[4],241 and 245 % of control
same,T/C,[5],288 % of control
NC1CCCCC1.NP(=O)(O)N(CCCl)CCCl,T/C,"dose: 25.0 mg/kg/injection, schedule: Q01DX001 (ip), vehicle: water",109 % of control
same,T/C,"dose: 50.0 mg/kg/injection, schedule: Q01DX001 (ip), vehicle: water",118 and 126 % of control
same,T/C,"dose: 100.0 mg/kg/injection, schedule: Q01DX001 (ip), vehicle: water",141 and 143 % of control
same,T/C,"dose: 200.0 mg/kg/injection, schedule: Q01DX001 (ip), vehicle: water",152 and 161 % of control
same,T/C,[6],173 % of control
same,survivor count,[6],7 of 10 on day 9
same,survivor count,"dose: 800.0 mg/kg/injection, schedule: Q01DX001 (ip), vehicle: water",1 of 10 on day 9
CC1=CC(=O)C(N(CCCl)CCCl)=CC1=O,T/C,"dose: 0.37 mg/kg/injection, schedule: Q01DX009 (ip), vehicle: Klucel (hydroxypropylcellulose) (HPC)",121 % of control
same,T/C,"dose: 0.75 mg/kg/injection, schedule: Q01DX009 (ip), vehicle: Klucel (hydroxypropylcellulose) (HPC)",126 % of control
same,T/C,"dose: 1.5 mg/kg/injection, schedule: Q01DX009 (ip), vehicle: Klucel (hydroxypropylcellulose) (HPC)",133 % of control
same,T/C,"dose: 3.0 mg/kg/injection, schedule: Q01DX009 (ip), vehicle: Klucel (hydroxypropylcellulose) (HPC)",171 % of control
Cc1ccc(N(CCCl)CCCl)cc1,T/C,[7],120 % of control
same,T/C,[8],147 % of control
same,T/C,[9],132 % of control
same,T/C,[10],135 % of control
CCOc1ccc(N(CCCl)CCCl)cc1,T/C,[11],152 % of control
same,T/C,[7],167 % of control
same,T/C,[8],183 % of control
same,T/C,[9],183 % of control
same,survivor count,[10],10 of 10
CCC(=O)N(c1ccccc1)C1CCNCC1,T/C,"dose: 50.0 mg/kg/injection, schedule: Q01DX009 (ip), vehicle: saline",96 % of control [9 of 10 alive]
same,T/C,"dose: 100.0 mg/kg/injection, schedule: Q01DX009 (ip), vehicle: saline",96 % of control
same,survivor count,"dose: 200.0 mg/kg/injection, schedule: Q01DX009 (ip), vehicle: saline",4 of 10
ClCCN(CCCl)c1ccccc1,T/C,"dose: 3.12 mg/kg/injection, schedule: Q01DX009 (ip), vehicle: Klucel (hydroxypropylcellulose) (HPC)",100 and 117 % of control [9 of 10 alive]
same,T/C,[1],110 % of control
same,T/C,[11],102 and 123 % of control
same,T/C,[2],105 % of control [8 of 10 alive]
same,T/C,[7],117 and 145 % of control
same,T/C,[3],121 % of control
same,T/C,[8],100 and 106 % of control
same,T/C,[4],102 % of control
same,survivor count,[9],10 of 10
same,survivor count,[5],10 of 10
same,survivor count,[10],5 of 10 and 9 of 10
same,survivor count,"dose: 100.0 mg/kg/injection, schedule: Q01DX009 (ip), vehicle: saline with Tween-80",5 of 10
C[N+](CCCl)(CCCl)Cc1ccc([N+](=O)[O-])cc1,T/C,"dose: 1.56 mg/kg/injection, schedule: Q01DX009 (ip), vehicle: saline",107 % of control [survivor count not shown]
same,T/C,"dose: 2.5 mg/kg/injection, schedule: Q01DX009 (ip), vehicle: saline",117 % of control [survivor count not shown]
same,T/C,"dose: 3.12 mg/kg/injection, schedule: Q01DX009 (ip), vehicle: saline",115 % of control [survivor count not shown]
same,T/C,"dose: 5.0 mg/kg/injection, schedule: Q01DX009 (ip), vehicle: saline",102 % of control [survivor count not shown]
same,T/C,"dose: 6.25 mg/kg/injection, schedule: Q01DX009 (ip), vehicle: saline",123 % of control [survivor count not shown]
same,T/C,"dose: 10.0 mg/kg/injection, schedule: Q01DX009 (ip), vehicle: saline",117 % of control [survivor count not shown]
same,T/C,"dose: 12.5 mg/kg/injection, schedule: Q01DX009 (ip), vehicle: saline",112 % of control [survivor count not shown]
